Results on 3 molecules are retold here after publication PMC6823292, “Molecular structure of human synaptonemal complex protein SYCE1” (Chromosoma, 2019).

Experiment [1] addresses human SYCE1 N-terminal region of amino acids 25–179 (yeast two-hybrid construct) (human) (UniProt Q8N0S2). Briefly: two-hybrid; Matchmaker Gold; pGBKT7 in Y187 mated with pGADT7 in Y2HGold; plated on SD/-Ade/-His/-Leu/-Trp/X-α-Gal, 5 days at 30 °C; reporters ADE1, HIS3, MEL1.
Experiment [2] concerns the target human SYCE1 C-terminal region 177–305 (yeast two-hybrid construct) (human) (UniProt Q8N0S2). The experiment is described as above.
The target of experiment [3] is SYCE1 core tethered dimer (short linker) (human) (UniProt Q8N0S2). Description: SEC-MALS; 6–20 mg/ml loaded on Superdex 200 Increase 10/300 GL in 20 mM Tris pH 8.0, 150 mM KCl, 2 mM DTT; both purified. On the technique in general: SEC sorts molecules by how far they enter the pores of the column.

These are yes or no findings as the source states them, for the method shown. Some binding calls cover weakened binding; strength is not graded here.

B1: human SYCE1 N-terminal region of amino acids 25–179 (yeast two-hybrid construct) (domain or fragment, UniProt Q8N0S2 25-179)
chain: GQDTSSQKIEDLMEMVQKLQKVGSLEPRVEVLINRINEVQQAKKKANKDLGEARTICEALQKELDSLHGEKVHLKEILSKKQETLRILRLHCQEKESEAHRKHTMLQECKERISALNLQIEEEKNKQRQLRLAFEEQLEDLMGQHKDLWDFHMPE
In the case of B1, the binding result in experiment [1] is “binds”.

B2: human SYCE1 C-terminal region 177–305 (yeast two-hybrid construct) (domain or fragment, UniProt Q8N0S2 177-305)
chain: MPERLAKEICALDSSKEQLLKEEKLVKATLEDVKHQLCSLCGAEGPSTLDEGLFLRSQEAAATVQLFQEEHRKAEELLAAAAQRHQQLQQKCQQQQQKRQRLKEELEKHGMQVPAQAQSTQEEEAGPGD
Regarding B2, in experiment [2], the binding entry was “no binding”.

B3: SYCE1 core tethered dimer (short linker) (protein, UniProt Q8N0S2 25-179; Q8N0S2 25-179)
chain: GQDTSSQKIEDLMEMVQKLQKVGSLEPRVEVLINRINEVQQAKKKANKDLGEARTICEALQKELDSLHGEKVHLKEILSKKQETLRILRLHCQEKESEAHRKHTMLQECKERISALNLQIEEEKNKQRQLRLAFEEQLEDLMGQHKDLWDFHMPEGQTNPGGQDTSSQKIEDLMEMVQKLQKVGSLEPRVEVLINRINEVQQAKKKANKDLGEARTICEALQKELDSLHGEKVHLKEILSKKQETLRILRLHCQEKESEAHRKHTMLQECKERISALNLQIEEEKNKQRQLRLAFEEQLEDLMGQHKDLWDFHMPE
For the molecule B3, in experiment [3], the binding result was “no binding (tested: 6–20 mg/ml loaded)”.
